1 molecule from patent US20180055768A1 can be followed below.

Chains of the proteins cited; added tags and fusions are not shown.
UniProt O00308: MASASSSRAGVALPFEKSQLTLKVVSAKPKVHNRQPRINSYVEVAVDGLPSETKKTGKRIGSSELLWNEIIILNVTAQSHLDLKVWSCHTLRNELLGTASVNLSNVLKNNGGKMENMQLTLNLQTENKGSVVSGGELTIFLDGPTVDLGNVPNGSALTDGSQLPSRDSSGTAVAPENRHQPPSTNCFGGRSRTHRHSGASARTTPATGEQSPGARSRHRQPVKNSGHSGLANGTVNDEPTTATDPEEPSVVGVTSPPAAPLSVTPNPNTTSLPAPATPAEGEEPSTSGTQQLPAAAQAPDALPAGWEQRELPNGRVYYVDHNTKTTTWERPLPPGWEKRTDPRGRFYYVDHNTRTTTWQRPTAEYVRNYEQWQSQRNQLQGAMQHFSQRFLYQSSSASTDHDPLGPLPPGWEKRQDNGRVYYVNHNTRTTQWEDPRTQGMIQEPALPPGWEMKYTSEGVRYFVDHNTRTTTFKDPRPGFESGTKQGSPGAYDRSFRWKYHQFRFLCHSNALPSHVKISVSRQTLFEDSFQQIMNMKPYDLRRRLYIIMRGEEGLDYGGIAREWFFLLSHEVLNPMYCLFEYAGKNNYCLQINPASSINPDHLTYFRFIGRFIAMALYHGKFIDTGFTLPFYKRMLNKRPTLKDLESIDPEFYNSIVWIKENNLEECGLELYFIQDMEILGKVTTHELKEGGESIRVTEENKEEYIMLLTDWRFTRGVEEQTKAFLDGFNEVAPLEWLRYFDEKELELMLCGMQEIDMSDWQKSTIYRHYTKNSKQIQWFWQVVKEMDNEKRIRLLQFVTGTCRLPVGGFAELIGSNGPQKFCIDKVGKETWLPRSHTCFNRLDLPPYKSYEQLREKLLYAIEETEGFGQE

No constants are given. Whether binding was seen depends on the method and setting. In cells and extracts the contact can be indirect. These calls come from enrichment with a bait or labelling near it, and not all partners need be listed.

In this assay the target is WWP2 (endogenous, identified in ARRDC1 immunoprecipitates of 293T cell lysates) (UniProt O00308). The experiment in a line: immunoprecipitation of endogenous ARRDC1 from 293T lysates with anti-ARRDC1 rabbit antibody, mass spectrometry.

B1: endogenous ARRDC1 (293T cells) (protein)
chain: MGRVQLFEISLSHGRVVYSPGEPLAGTVRVRLGAPLPFRAIRVTCIGSCGVSNKANDTAWVVEEGYFNSSLSLADKGSLPAGEHSFPFQFLLPATAPTSFEGPFGKIVHQVRAAIHTPRFSKDHKCSLVFYILSPLNLNSIPDIEQPNVASATKKFSYKLVKTGSVVLTASTDLRGYVVGQALQLHADVENQSGKDTSPVVASLLQKVSYKAKRWIHDVRTIAEVEGAGVKAWRRAQWHEQILVPALPQSALPGCSLIHIDYYLQVSLKAPEATVTLPVFIGNIAVNHAPVSPRPGLGLPPGAPPLVVPSAPPQEEAEAEAAAGGPHFLDPVFLSTKSHSQRQPLLATLSSVPGAPEPCPQDGSPASHPLHPPLCISTGATVPYFAEGSGGPVPTTSTLILPPEYSSWGYPYEAPPSYEQSCGGVEPSLTPES
B1: the binding result is “binds”.
